{"source": "PubChem BioAssay AID652243 – Drosophila RNAi Screening Center, 2013", "screen": "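Fly genes required for human androgen receptor driven transcription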 (primary screen)", "cells": "Drosophila S2R+ cells", "knock-down reagent": "long dsRNA against Drosophila genes", "duration": "72 h (48 h, then 24 h hormone)", "conditions": "synthetic androgen R1881 at 10 nM for 24 h", "read-out": "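Per-well raw luminescence of the androgen-driven firefly reporter and of the Renilla control, two replicates each, without normalisation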", "reading the numbers": "firefly reporter light: higher = more light from androgen-responsive reporter; Renilla control light: higher = more constitutive control signal (cell number, transfection)", "active means": "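Across duplicate plates, a knock-down whose log firefly/Renilla ratio shifted a set fold down or up from the GFP/LacZ control mean was a hit; the downward cut appears as both 1.5 and 3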", "meaning of the calls": "active = hit: reporter lowered or raised; inactive = no hit", "note": "The screen tested about 24,000 reagents; this is a random part of those with a known target gene and a result. In the full data, 246 (1%) are marked active. 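Plates not normalised; calls are printed but the firefly/Renilla ratio behind them is not deposited; fold cut for lowering reported inconsistently.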 Raw values are not corrected between plates. No sequences are given here. The record does not give: the amount of reagent."}
The first 3 records, to show the layout:
{"gene": "eIF4G1 (eukaryotic translation initiation factor 4G1)", "amplicon": "DRSC17218", "firefly reporter light, replicate 1": 70637, "firefly reporter light, replicate 2": 75397, "Renilla control light, replicate 1": 6.59e5, "Renilla control light, replicate 2": 5.08e5, "Call": "inactive"}
{"gene": "eIF4G1 (eukaryotic translation initiation factor 4G1)", "amplicon": "DRSC29786", "firefly reporter light, replicate 1": 5.25e5, "firefly reporter light, replicate 2": 4.54e5, "Renilla control light, replicate 1": 1.25e6, "Renilla control light, replicate 2": 1.18e6, "Call": "inactive"}
{"gene": "MnM (myomesin and myosin binding protein)", "amplicon": "DRSC08423", "firefly reporter light, replicate 1": 1.10e5, "firefly reporter light, replicate 2": 1.20e5, "Renilla control light, replicate 1": 2.18e6, "Renilla control light, replicate 2": 2.19e6, "Call": "inactive"}

Results, from the start:
{"gene": "eIF4G1 (eukaryotic translation initiation factor 4G1)", "amplicon": "DRSC17218", "firefly reporter light, replicate 1": 70637, "firefly reporter light, replicate 2": 75397, "Renilla control light, replicate 1": 6.59e5, "Renilla control light, replicate 2": 5.08e5, "Call": "inactive"}
{"gene": "eIF4G1 (eukaryotic translation initiation factor 4G1)", "amplicon": "DRSC29786", "firefly reporter light, replicate 1": 5.25e5, "firefly reporter light, replicate 2": 4.54e5, "Renilla control light, replicate 1": 1.25e6, "Renilla control light, replicate 2": 1.18e6, "Call": "inactive"}
{"gene": "MnM (myomesin and myosin binding protein)", "amplicon": "DRSC08423", "firefly reporter light, replicate 1": 1.10e5, "firefly reporter light, replicate 2": 1.20e5, "Renilla control light, replicate 1": 2.18e6, "Renilla control light, replicate 2": 2.19e6, "Call": "inactive"}
{"gene": "CG11211", "amplicon": "DRSC04851", "firefly reporter light, replicate 1": 4.64e5, "firefly reporter light, replicate 2": 4.29e5, "Renilla control light, replicate 1": 3.15e6, "Renilla control light, replicate 2": 2.71e6, "Call": "inactive"}
{"gene": "Gr10b (Gustatory receptor 10b)", "amplicon": "DRSC19477", "firefly reporter light, replicate 1": 3.66e5, "firefly reporter light, replicate 2": 3.05e5, "Renilla control light, replicate 1": 3.23e6, "Renilla control light, replicate 2": 3.67e6, "Call": "inactive"}
{"gene": "Gr10b (Gustatory receptor 10b)", "amplicon": "DRSC28702", "firefly reporter light, replicate 1": 5.90e5, "firefly reporter light, replicate 2": 4.96e5, "Renilla control light, replicate 1": 1.12e6, "Renilla control light, replicate 2": 1.03e6, "Call": "inactive"}
{"gene": "Oatp74D (Organic anion transporting polypeptide 74D)", "amplicon": "DRSC09491", "firefly reporter light, replicate 1": 1.61e5, "firefly reporter light, replicate 2": 1.53e5, "Renilla control light, replicate 1": 1.98e5, "Renilla control light, replicate 2": 1.42e5, "Call": "inactive"}
{"gene": "Oatp74D (Organic anion transporting polypeptide 74D)", "amplicon": "DRSC10883", "firefly reporter light, replicate 1": 21544, "firefly reporter light, replicate 2": 57892, "Renilla control light, replicate 1": 2.84e5, "Renilla control light, replicate 2": 3.25e5, "Call": "inactive"}
{"gene": "CG34164", "amplicon": "DRSC02837", "firefly reporter light, replicate 1": 2.46e5, "firefly reporter light, replicate 2": 1.57e5, "Renilla control light, replicate 1": 1.21e6, "Renilla control light, replicate 2": 1.29e6, "Call": "inactive"}
{"gene": "CG18585", "amplicon": "DRSC02678", "firefly reporter light, replicate 1": 8.83e5, "firefly reporter light, replicate 2": 1.09e6, "Renilla control light, replicate 1": 2.22e6, "Renilla control light, replicate 2": 2.20e6, "Call": "inactive"}
{"gene": "CG12448", "amplicon": "DRSC01967", "firefly reporter light, replicate 1": 1.41e5, "firefly reporter light, replicate 2": 99260, "Renilla control light, replicate 1": 1.18e6, "Renilla control light, replicate 2": 1.11e6, "Call": "inactive"}
{"gene": "mRpL21 (mitochondrial ribosomal protein L21)", "amplicon": "DRSC11100", "firefly reporter light, replicate 1": 2.80e5, "firefly reporter light, replicate 2": 1.92e5, "Renilla control light, replicate 1": 2.98e6, "Renilla control light, replicate 2": 1.46e6, "Call": "inactive"}
{"gene": "P5CS (Delta[1]-pyrroline-5-carboxylate synthase)", "amplicon": "DRSC11831", "firefly reporter light, replicate 1": 72113, "firefly reporter light, replicate 2": 95053, "Renilla control light, replicate 1": 7.80e5, "Renilla control light, replicate 2": 8.16e5, "Call": "inactive"}
{"gene": "P5CS (Delta[1]-pyrroline-5-carboxylate synthase)", "amplicon": "DRSC11832", "firefly reporter light, replicate 1": 2.35e5, "firefly reporter light, replicate 2": 1.55e5, "Renilla control light, replicate 1": 1.93e6, "Renilla control light, replicate 2": 2.05e6, "Call": "inactive"}
{"gene": "CG32100", "amplicon": "DRSC09725", "firefly reporter light, replicate 1": 1.92e5, "firefly reporter light, replicate 2": 1.94e5, "Renilla control light, replicate 1": 2.19e6, "Renilla control light, replicate 2": 2.22e6, "Call": "inactive"}
{"gene": "CG32100", "amplicon": "DRSC10331", "firefly reporter light, replicate 1": 3.28e5, "firefly reporter light, replicate 2": 1.93e5, "Renilla control light, replicate 1": 2.32e6, "Renilla control light, replicate 2": 2.16e6, "Call": "inactive"}
{"gene": "Ir7b (Ionotropic receptor 7b)", "amplicon": "DRSC18009", "firefly reporter light, replicate 1": 2.20e5, "firefly reporter light, replicate 2": 2.85e5, "Renilla control light, replicate 1": 2.58e6, "Renilla control light, replicate 2": 2.47e6, "Call": "inactive"}
{"gene": "CG32221", "amplicon": "DRSC09638", "firefly reporter light, replicate 1": 2.05e5, "firefly reporter light, replicate 2": 1.39e5, "Renilla control light, replicate 1": 6.06e5, "Renilla control light, replicate 2": 5.67e5, "Call": "inactive"}
{"gene": "santa-maria", "amplicon": "DRSC00994", "firefly reporter light, replicate 1": 1.95e5, "firefly reporter light, replicate 2": 1.88e5, "Renilla control light, replicate 1": 2.99e5, "Renilla control light, replicate 2": 2.39e5, "Call": "inactive"}
{"gene": "santa-maria", "amplicon": "DRSC02180", "firefly reporter light, replicate 1": 9.11e5, "firefly reporter light, replicate 2": 1.31e6, "Renilla control light, replicate 1": 1.62e6, "Renilla control light, replicate 2": 1.92e6, "Call": "inactive"}
{"gene": "Zn72D (Zinc-finger protein at 72D)", "amplicon": "DRSC11318", "firefly reporter light, replicate 1": 83330, "firefly reporter light, replicate 2": 54453, "Renilla control light, replicate 1": 5.11e5, "Renilla control light, replicate 2": 3.06e5, "Call": "inactive"}
{"gene": "hyx (hyrax)", "amplicon": "DRSC14462", "firefly reporter light, replicate 1": 57212, "firefly reporter light, replicate 2": 53926, "Renilla control light, replicate 1": 2.95e5, "Renilla control light, replicate 2": 3.75e5, "Call": "inactive"}
{"gene": "SNCF (SoxNeuro Co-Factor)", "amplicon": "DRSC10115", "firefly reporter light, replicate 1": 1.34e5, "firefly reporter light, replicate 2": 1.54e5, "Renilla control light, replicate 1": 1.47e6, "Renilla control light, replicate 2": 1.24e6, "Call": "inactive"}
{"gene": "ApepP (Aminopeptidase P)", "amplicon": "DRSC01866", "firefly reporter light, replicate 1": 8.39e5, "firefly reporter light, replicate 2": 1.13e6, "Renilla control light, replicate 1": 1.26e6, "Renilla control light, replicate 2": 1.31e6, "Call": "inactive"}
{"gene": "CG5397", "amplicon": "DRSC00683", "firefly reporter light, replicate 1": 6.42e5, "firefly reporter light, replicate 2": 7.92e5, "Renilla control light, replicate 1": 1.47e6, "Renilla control light, replicate 2": 1.58e6, "Call": "inactive"}
{"gene": "CG5397", "amplicon": "DRSC28535", "firefly reporter light, replicate 1": 5.05e5, "firefly reporter light, replicate 2": 6.52e5, "Renilla control light, replicate 1": 8.56e5, "Renilla control light, replicate 2": 1.05e6, "Call": "inactive"}
{"gene": "Ote (Otefin)", "amplicon": "DRSC07498", "firefly reporter light, replicate 1": 2.26e5, "firefly reporter light, replicate 2": 2.59e5, "Renilla control light, replicate 1": 4.11e5, "Renilla control light, replicate 2": 5.23e5, "Call": "inactive"}
